{"source": "patent US10858331B1", "about": "“Ester nitrates derivatives of aromatic aldehydes with multiple pharmalogic properties to treat sickle cell disease” (VIRGINIA COMMONWEALTH UNIVERSITY, priority 2013, dated 2020)", "test": "NO release study (Griess assay) in presence of L-cysteine", "conditions": "2 mM compound solution mixed with 36 mM L-cysteine, phosphate buffer pH 7.4, 37° C., anaerobic", "procedure": "Griess assay was performed on the left-shifting nitrate ester compounds (TD-1, […], TD-8-1 and, TD-9-1) to measure the release of NO. Griess assay is a colorimetric assay, used for detection of NO in the form of nitrite ions (NO2^−). NO released in solution is highly unstable, with a half-life of 1 to 30 s. It gets rapidly oxidized to NO2^− which is detected by the Griess reagent. In this method, NO2^−, first reacts with the sulfanilamide present in the reagent to form a transient diazonium salt. […] Sodium nitrite (NaNO2) was used as a standard for the Griess assay. NaNO2 samples in deionized water were prepared of concentrations within the linear range of the assay (1-100 μM). The samples were incubated for 30 min at 37° C., after which Griess reagent was added and absorbance was measured at 540 nm. The measured absorbances were used to obtain a standard curve (FIG. 3). For the measurement of NO2^− release for all the test compounds (TD-1, TD-7-1, TD-8-1 and TD-9-1), the absorbances were extrapolated from the standard NaNO2 curve.\nIn this assay, a solution of the test compound (1 mL of a 2 mM solution in 0.1 M phosphate buffer (pH 7.4)) was mixed thoroughly with a freshly prepared solution of L-cysteine (1 mL of a 36 mM solution in 0.1 M phosphate buffer, pH 7.4), and incubated at 37° C., for 1 and 16 h under anaerobic conditions. After exposure to air for 10 min at 25° C., an aliquot of the Griess reagent (1 mL) [freshly prepared by mixing equal volumes of 1.0% sulfanilamide (prepared and stored in aqueous 5% phosphoric acid) and 0.1% N-naphthylethylenediamine dihydrochloride in water] was added to an equal volume (1 mL) of each incubation solution after mixing. After 10 min, absorbance was measured at 540 nm using a Hewlett Packard (Agilent) 8453 UV-visible Spectroscopy. NaNO2 solutions of 1-100 μM concentrations were used to prepare a standard nitrite curve of absorbance […] versus concentration (μM). The NO released (quantitated as NO2^− release in μM) was calculated from the standard nitrite curve by extrapolation of the absorbance. […]", "note": "Some of these results come from one statement about several compounds together. Some ranges recur; such a range may be that of the whole group of compounds.", "data": [{"smiles": "O=Cc1ccc(CO[N+](=O)[O-])o1", "note": "[TD-1, 5-Nitrooxymethyl furfural]", "values": [{"measurement": "NO2− release after 1 hour", "value": "4.0 to 21.9", "unit": "µM"}]}, {"smiles": "COc1ccc(OCc2cccc(CO[N+](=O)[O-])n2)c(C=O)c1", "note": "[TD-7-1, (6-((2-Formyl-4-methoxyphenoxy)methyl)pyridin-2-yl)methyl nitrate]", "values": [{"measurement": "NO2− release after 1 hour", "value": "4.0 to 21.9", "unit": "µM"}, {"measurement": "NO2− release after 16 hours", "value": "59 to 102.5", "unit": "µM"}]}, {"smiles": "COc1ccc(C=O)cc1OCc1cccc(CO[N+](=O)[O-])n1", "note": "[TD-8-1, (6-((5-Formyl-2-methoxyphenoxy)methyl)pyridin-2-yl)methyl nitrate]", "values": [{"measurement": "NO2− release after 16 hours", "value": "59 to 102.5", "unit": "µM"}]}, {"smiles": "COc1ccc(C=O)c(OCc2cccc(CO[N+](=O)[O-])n2)c1", "note": "[TD-9-1, (6-((2-Formyl-5-methoxyphenoxy)methyl)pyridin-2-yl)methyl nitrate]", "values": [{"measurement": "NO2− release after 16 hours", "value": "59 to 102.5", "unit": "µM"}]}]}
